# Assay results

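After two days of drug exposure, surviving LP1 myeloma cells were estimated from their ATP-driven luminescent signal. Each compound was run as a dilution series from about 0.00003 µM to 92 µM, usually topping out near 45.8 µM. The number is a fitted AC50, the concentration giving half the maximal effect on viability; lower values mean greater potency. Calls come from NCATS curve classes and activity scores: actives score 40–100, inconclusives 1–39 (weak, partial, single-point or poorly fitted curves), inactives score 0.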

Values are in µM. Every entry below has the call inconclusive. These entries are mostly ones the record files as inconclusive; other results of the assay are not listed here. Potencies fitted to partial, single-point or poorly fitting curves are rough. Some entries filed as inconclusive have a full curve. The first word of each remark tells which way the curve ran; it can be opposite to the aim of the assay. Activity scores are not listed here.

| # | Compound | Potency (µM) | curve |
|---|---|---|---|
| 1 | `COc1cc(OC)c(C=CS(=O)(=O)Cc2ccc(OC)c(NCC(=O)O)c2)c(OC)c1` | 0.4686 | cytotoxic, full curve |
| 2 | `CCn1cc(C(=O)O)c(=O)c2cc(F)c(N3CCNCC3)cc21` | 0.001 | cytotoxic |
| 3 | `CO[C@@H]1[C@H](N(C)C(=O)c2ccccc2)C[C@H]2O[C@]1(C)n1c3ccccc3c3c4c(c5c6ccccc6n2c5c31)C(=O)NC4` | 2.635 | cytotoxic, full curve |
| 4 | `CNC(=O)CN1CCC(Oc2cc3c(Nc4cccc(Cl)c4F)ncnc3cc2OC)CC1` | 0.0743 | cytotoxic, full curve |
| 5 | `CN(C)c1ccc(C(=O)NCCCCCCC(=O)NO)cc1` | 0.8333 | cytotoxic, full curve, poor fit |
| 6 | `COc1cc([C@@H]2c3cc4c(cc3[C@@H](O[C@@H]3O[C@@H]5CO[C@@H](c6cccs6)O[C@@H]5[C@H](O)[C@@H]3O)[C@H]3COC(=O)[C@H]23)OCO4)cc(OC)c1O` | 33.17 | cytotoxic, single point |
| 7 | `Cc1cnc(NC(=O)Nc2cc(Br)c(C)cc2OC[C@@H]2CNCCO2)cn1` | 11.77 | cytotoxic, partial curve |
| 8 | `CCN(CC)CCCCNc1ncc2c(n1)N(C)C(=O)N(c1c(Cl)c(OC)cc(OC)c1Cl)C2` | 3.722 | cytotoxic, partial curve |
| 9 | `Cc1cc(N2CCOCC2)cc2[nH]c(-c3c(NC[C@@H](O)c4cccc(Cl)c4)cc[nH]c3=O)nc12` | 0.0148 | cytotoxic, full curve, poor fit |
| 10 | `CC(C)(C)NC(=O)[C@H]1CN(Cc2cccnc2)CCN1C[C@@H](O)C[C@@H](Cc1ccccc1)C(=O)N[C@H]1c2ccccc2C[C@H]1O` | 26.35 | cytotoxic, single point |
| 11 | `CC(=O)C1=C(O)C=C2Oc3c(C(C)=O)c(O)c(C)c(O)c3C2(C)C1=O` (stereo unspecified) | 0.0296 | rising, full curve, poor fit |

Repeated from the top, 2 entries:

| Compound | Potency (µM) | curve |
|---|---|---|
| `COc1cc(OC)c(C=CS(=O)(=O)Cc2ccc(OC)c(NCC(=O)O)c2)c(OC)c1` | 0.4686 | cytotoxic, full curve |
| `CCn1cc(C(=O)O)c(=O)c2cc(F)c(N3CCNCC3)cc21` | 0.001 | cytotoxic |

The results are deposited in PubChem (AID1918982; NCATS, 2023).